Results: patent US10207985B2, “Compounds” (SYNGENTA PARTICIPATIONS AG, priority 2013, dated 2019)
Some entries share one result that the patent states for a list of compounds.

Columns and labels:
Format in all cases: in vivo
[1] = system: Heterodera schachtii (Sugar beet cyst nematode); assay: Heterodera schachtii nematicide, contact activity (juvenile immobilization in 16-well plates); conditions: 20 ppm; approx. 500 juveniles per well; 24 hours incubation at 25° C. in darkness
[2] = system: Meloidogyne spp. (Root-Knot Nematode); assay: Meloidogyne spp. nematicide, contact activity, preventive (cucumber pot test, Zeck's gall index); conditions: pots treated with 5 ml of a WP10 suspension, 3000 eggs of M. incognita, harvested fourteen days after application
[3] = system: Meloidogyne spp. (Root-Knot Nematode); assay: Meloidogyne spp. nematicide, contact activity, preventive (cucumber seed pouch test); conditions: test solutions at 200 ppm; cucumber cv. Toshka seed in pouch; 3000 eggs; twelve days; number of galls per root system

O=C(NC1CCC1c1cccc2cccnc12)c1ccccc1C(F)(F)F (racemic) [Compound 116-48]
nematode immobilization compared to the untreated control [1]: greater than 75%

O=C(NC1CCC1c1cccc2c1OC(F)(F)O2)c1ncccc1C(F)(F)F (racemic) [Compound 116-40]
reduction of galling compared to the untreated control [2]: greater than 80%

O=C(NC1CCC1c1ccc(Cl)nc1)c1nccnc1Cl (racemic) [Compound 116-13]
reduction of galling compared to the untreated control [3]: greater than 80%
nematode immobilization compared to the untreated control [1]: greater than 75%
reduction of galling compared to the untreated control [2]: greater than 80%

Cn1cc(Cl)c(C2CCC2NC(=O)c2cccnc2C(F)(F)F)n1 (racemic) [Compound 116-16]
reduction of galling compared to the untreated control [2]: greater than 80%

O=C(NC1CCC1c1ccc(C(F)(F)F)cn1)c1ccccc1C(F)(F)F (racemic) [Compound 116-51]
nematode immobilization compared to the untreated control [1]: greater than 75%

O=C(NC1CCC1c1ccc(C(F)(F)F)nc1)c1ncccc1C(F)(F)F (racemic) [Compound 116-22]
reduction of galling compared to the untreated control [3]: greater than 80%
nematode immobilization compared to the untreated control [1]: greater than 75%
reduction of galling compared to the untreated control [2]: greater than 80%

O=C(NC1CCC1c1cnccc1C(F)(F)F)c1ccccc1C(F)(F)F (racemic) [Compound 116-26]
nematode immobilization compared to the untreated control [1]: greater than 75%

O=C(NC1CCC1c1ccc(Cl)s1)c1ncccc1C(F)(F)F (racemic) [Compound 116-3]
reduction of galling compared to the untreated control [3]: greater than 80%
nematode immobilization compared to the untreated control [1]: greater than 75%
reduction of galling compared to the untreated control [2]: greater than 80%

Cn1cc(Cl)c(C2CCC2NC(=O)c2ccccc2C(F)(F)F)n1 (racemic) [Compound 116-15]
reduction of galling compared to the untreated control [2]: greater than 80%

O=C(N[C@H]1CC[C@H]1c1ncccc1Cl)c1ccccc1C(F)(F)F [Compound 118-2, N-[(1S,2R)-2-(3-chloro-2-pyridyl)cyclobutyl]-2-(trifluoromethyl) benzamide]
nematode immobilization compared to the untreated control [1]: greater than 75%

O=C(NC1CCC1c1ccc(Cl)nc1)c1ncccc1C(F)(F)F (racemic) [Compound 116-14]
reduction of galling compared to the untreated control [3]: greater than 80%
nematode immobilization compared to the untreated control [1]: greater than 75%
reduction of galling compared to the untreated control [2]: greater than 80%

O=C(NC1CCC1c1ccc(Cl)s1)c1ccccc1C(F)(F)F (racemic) [Compound 116-5]
reduction of galling compared to the untreated control [3]: greater than 80%
reduction of galling compared to the untreated control [2]: greater than 80%

O=C(NC1CCC1c1cccc2c1OC(F)(F)O2)c1cccnc1C(F)(F)F (racemic) [Compound 116-42]
reduction of galling compared to the untreated control [2]: greater than 80%

Cc1ccsc1C1CCC1NC(=O)c1cccnc1C(F)(F)F (racemic) [Compound 116-6]
reduction of galling compared to the untreated control [3]: greater than 80%
nematode immobilization compared to the untreated control [1]: greater than 75%
reduction of galling compared to the untreated control [2]: greater than 80%

O=C(NC1CCC1c1ccc(Cl)nc1)c1ccccc1C(F)(F)F (racemic) [Compound 116-10]
reduction of galling compared to the untreated control [3]: greater than 80%
nematode immobilization compared to the untreated control [1]: greater than 75%
reduction of galling compared to the untreated control [2]: greater than 80%

Cn1cc(Cl)c(C2CCC2NC(=O)c2ncccc2C(F)(F)F)n1 (racemic) [Compound 116-17]
nematode immobilization compared to the untreated control [1]: greater than 75%

O=C(NC1CCC1c1ccc(Cl)nc1)c1nccnc1C(F)(F)F (racemic) [Compound 116-12]
reduction of galling compared to the untreated control [3]: greater than 80%
nematode immobilization compared to the untreated control [1]: greater than 75%
reduction of galling compared to the untreated control [2]: greater than 80%

O=C(NC1CCC1c1ccc(Cl)nc1)c1cccnc1C(F)(F)F (racemic) [Compound 116-11]
reduction of galling compared to the untreated control [3]: greater than 80%
nematode immobilization compared to the untreated control [1]: greater than 75%
reduction of galling compared to the untreated control [2]: greater than 80%

O=C(NC1CCC1c1ccc(C(F)(F)F)nc1)c1cccnc1C(F)(F)F (racemic) [Compound 116-20]
reduction of galling compared to the untreated control [3]: greater than 80%

O=C(NC1CCC1c1ccc(Cl)s1)c1cccnc1C(F)(F)F (racemic) [Compound 116-7]
reduction of galling compared to the untreated control [3]: greater than 80%
nematode immobilization compared to the untreated control [1]: greater than 75%
reduction of galling compared to the untreated control [2]: greater than 80%

Cc1ccsc1C1CCC1NC(=O)c1ncccc1C(F)(F)F (racemic) [Compound 116-2]
reduction of galling compared to the untreated control [3]: greater than 80%
nematode immobilization compared to the untreated control [1]: greater than 75%

O=C(N[C@H]1CC[C@H]1c1ccc(Cl)s1)c1cccnc1C(F)(F)F [Compound 118-1]
nematode immobilization compared to the untreated control [1]: greater than 75%

O=C(NC1CCC1c1ccc(C(F)(F)F)nc1)c1nccnc1Cl (racemic) [Compound 116-23]
reduction of galling compared to the untreated control [3]: greater than 80%
reduction of galling compared to the untreated control [2]: greater than 80%

O=C(NC1CCC1c1ncccc1Cl)c1ccccc1C(F)(F)F (racemic) [Compound 116-50, N-[2-(3-chloro-2-pyridyl)cyclobutyl]-2-(trifluoromethyl)benzamide]
nematode immobilization compared to the untreated control [1]: greater than 75%

O=C(NC1CCC1c1cccc2c1NCCC2)c1ccccc1C(F)(F)F (racemic) [Compound 116-35]
nematode immobilization compared to the untreated control [1]: greater than 75%

Cc1ccsc1C1CCC1NC(=O)c1nccnc1C(F)(F)F (racemic) [Compound 116-9]
reduction of galling compared to the untreated control [3]: greater than 80%
nematode immobilization compared to the untreated control [1]: greater than 75%

O=C(NC1CCC1c1ccc(C(F)(F)F)nc1)c1nccnc1C(F)(F)F (racemic) [Compound 116-21]
reduction of galling compared to the untreated control [3]: greater than 80%
nematode immobilization compared to the untreated control [1]: greater than 75%
reduction of galling compared to the untreated control [2]: greater than 80%

O=C(NC1CCC1c1ccc(C(F)(F)F)nc1)c1ccccc1C(F)(F)F (racemic) [Compound 116-19]
nematode immobilization compared to the untreated control [1]: greater than 75%
reduction of galling compared to the untreated control [2]: greater than 80%

O=C(NC1CCC1c1ccc(Cl)s1)c1nccnc1C(F)(F)F (racemic) [Compound 116-8]
reduction of galling compared to the untreated control [3]: greater than 80%
nematode immobilization compared to the untreated control [1]: greater than 75%
reduction of galling compared to the untreated control [2]: greater than 80%
